PubChem BioAssay AID1259282 – Sanger Institute | 2017

Purpose: 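Kinase knock-downs that work with targeted colorectal cancer drugs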 (primary screen)
Cells: DIFI human colorectal cancer cell line
Reagent: siRNA pool against human genes
Challenge: anchor drug at a mild dose (BYL719 1 µM, cetuximab 5 µg/ml, trametinib 10 nM) or DMSO vehicle; exposure time not given
Measurement: 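Robust z-score and replicate-mean viability versus non-targeting pool without drug, plus a synergy score for each low-dose anchor drug (BYL719, cetuximab, trametinib)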
Direction: robust z-score, knock-down alone: higher = more viable cells than typical knock-down; viability, knock-down alone: higher = more viable cells
Units: viability, knock-down alone in fraction of control
Rule for the call: 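Essential when the robust z-score of the knock-down without drug falls below -3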
Calls: active = essential (knock-down alone, z below -3); inactive = not essential
The whole screen tested 794 reagents; below is a part drawn at random. 11 of them (1.4%) count as active. 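Calls flag knock-downs that lower viability without drug; drug synergy appears only in the synergy scores; exposure time not stated.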 Viability is capped at 1. Not all columns of the deposit are shown. The record does not give: the amount of reagent, the time to read-out.

For MECOM, what does the deposit list?
robust z-score, knock-down alone: 0.715; viability, knock-down alone: 1; activity call: inactive

What did the screen give for PNKP?
robust z-score, knock-down alone: -0.742; viability, knock-down alone: 0.788; activity call: inactive

With CDC42BPA, what does the deposit list?
robust z-score, knock-down alone: -0.948; viability, knock-down alone: 0.758; activity call: inactive

For CTCF, what does the deposit list?
robust z-score, knock-down alone: 0.223; viability, knock-down alone: 0.929; activity call: inactive

What is on record for CAD?
robust z-score, knock-down alone: 0.715; viability, knock-down alone: 1; activity call: inactive

What did the screen give for CILK1?
robust z-score, knock-down alone: 0.318; viability, knock-down alone: 0.942; activity call: inactive

For STK32C, what does the deposit list?
robust z-score, knock-down alone: 0.715; viability, knock-down alone: 1; activity call: inactive

For PIP4K2A, what does the deposit list?
robust z-score, knock-down alone: 0.715; viability, knock-down alone: 1; activity call: inactive

With PRKAR2B, what does the deposit list?
robust z-score, knock-down alone: -1.05; viability, knock-down alone: 0.744; activity call: inactive

What is on record for TEK?
robust z-score, knock-down alone: 0.715; viability, knock-down alone: 1; activity call: inactive

With CDK7, how do the results read?
robust z-score, knock-down alone: -0.247; viability, knock-down alone: 0.86; activity call: inactive

For GUK1, what was measured?
robust z-score, knock-down alone: 0.398; viability, knock-down alone: 0.954; activity call: inactive

For ROR2, what was measured?
robust z-score, knock-down alone: 0.648; viability, knock-down alone: 0.99; activity call: inactive

With UCK1, what does the deposit list?
robust z-score, knock-down alone: -0.149; viability, knock-down alone: 0.875; activity call: inactive

How did the screen score CLK4?
robust z-score, knock-down alone: 0.715; viability, knock-down alone: 1; activity call: inactive

How did the screen score MGA?
robust z-score, knock-down alone: -1.33; viability, knock-down alone: 0.702; activity call: inactive

What did the screen give for IRAK3?
robust z-score, knock-down alone: -2.7; viability, knock-down alone: 0.504; activity call: inactive

With DCLK2, what was measured?
robust z-score, knock-down alone: 0.715; viability, knock-down alone: 1; activity call: inactive

With ULK2, how do the results read?
robust z-score, knock-down alone: -0.556; viability, knock-down alone: 0.815; activity call: inactive

Which result is listed for MYH10?
robust z-score, knock-down alone: -0.399; viability, knock-down alone: 0.838; activity call: inactive

With CAMK2D, what was measured?
robust z-score, knock-down alone: 0.715; viability, knock-down alone: 1; activity call: inactive

For STK40, what was measured?
robust z-score, knock-down alone: -0.39; viability, knock-down alone: 0.84; activity call: inactive

What did the screen give for HIPK2?
robust z-score, knock-down alone: -0.527; viability, knock-down alone: 0.82; activity call: inactive

How did the screen score SF3B1?
robust z-score, knock-down alone: -1.57; viability, knock-down alone: 0.668; activity call: inactive

For TBX3, how do the results read?
robust z-score, knock-down alone: 0.715; viability, knock-down alone: 1; activity call: inactive

What is on record for PRKACB?
robust z-score, knock-down alone: 0.715; viability, knock-down alone: 1; activity call: inactive

How did the screen score PRKAA2?
robust z-score, knock-down alone: 0.42; viability, knock-down alone: 0.957; activity call: inactive

With BCKDK, what was measured?
robust z-score, knock-down alone: 0.715; viability, knock-down alone: 1; activity call: inactive

2 entries already listed, sorted by “viability, knock-down alone”, high to low.
ROR2: robust z-score, knock-down alone = 0.648; viability, knock-down alone = 0.99; activity call = inactive
UCK1: robust z-score, knock-down alone = -0.149; viability, knock-down alone = 0.875; activity call = inactive
